The assay concerns E. coli BW25113. The assay is described as follows: Microdilution checkerboard / MIC. Format: cell-based. The note with it: Escherichia coli, meropenem alone, carbapenem sensitive strain. Here is the method:
FIC values were determined by standard methods^27 setting up checkerboards with 8 concentrations of each meropenem and AM-A in serial ½ dilutions. Experiments were done in duplicate and the mean used for calculation. The MIC for each compound was the lowest concentration of compound showing no growth. The FIC for each compound was calculated as the concentration of the compound in the presence of co-compound for a well showing no growth, divided by the MIC for that compound. The FIC index is the sum of the two FICs.
(Broth dilution looks for growth in wells or tubes with falling amounts of substance.)

By MIC is commonly meant the least concentration at which growth counts as inhibited.

As for `C[C@@H](O)[C@H]1C(=O)N2C(C(=O)O)=C(S[C@@H]3CN[C@H](C(=O)N(C)C)C3)[C@H](C)[C@H]12` [meropenem, reference compound], the MIC lay in the range of 0.008 to 0.016 µg/mL.

The record behind these values is patent publication US10016383B2, “Inhibitors of metallo-β-lactamase-enzymes” (McMaster University, priority 2013, dated 2018).
